This is an account of results in publication PMC10897455.

Conditions in all cases: remark: other sources report otherwise
For experiment [1], the target named is T1, claudin-1 (residues 1–211), FLAG- or Myc-tagged, in HEK293 cells (human), O95832.
T1 chain: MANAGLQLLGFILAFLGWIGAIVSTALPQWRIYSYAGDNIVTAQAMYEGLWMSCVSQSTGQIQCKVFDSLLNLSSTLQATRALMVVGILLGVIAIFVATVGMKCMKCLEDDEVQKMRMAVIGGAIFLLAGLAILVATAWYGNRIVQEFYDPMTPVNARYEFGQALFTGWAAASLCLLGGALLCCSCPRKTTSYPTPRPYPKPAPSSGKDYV
The experiment can be described thus: co-IP; cis, with or without a co-expressed third protein: HEK293T cells triply transfected (HA–TMEM25, HA–JAM-A or Myc–Par3 as third protein), low density; anti-FLAG or anti-HA precipitation; immunoblot, band ratios.

For experiment [2], the target named is T1, claudin-1 (residues 1–211), FLAG- or …. Description: co-IP; trans, with or without a co-expressed third protein: HEK293T cells with the FLAG-tagged protein with or without HA–TMEM25 or HA–JAM-A co-cultured to confluency with cells expressing the Myc-tagged protein; anti-FLAG precipitation; immunoblot, band ratios.
In experiment [3] the target is T2, occludin (residues 1–522), FLAG- or Myc-tagged, in HEK293 cells (human), Q16625.
T2 chain: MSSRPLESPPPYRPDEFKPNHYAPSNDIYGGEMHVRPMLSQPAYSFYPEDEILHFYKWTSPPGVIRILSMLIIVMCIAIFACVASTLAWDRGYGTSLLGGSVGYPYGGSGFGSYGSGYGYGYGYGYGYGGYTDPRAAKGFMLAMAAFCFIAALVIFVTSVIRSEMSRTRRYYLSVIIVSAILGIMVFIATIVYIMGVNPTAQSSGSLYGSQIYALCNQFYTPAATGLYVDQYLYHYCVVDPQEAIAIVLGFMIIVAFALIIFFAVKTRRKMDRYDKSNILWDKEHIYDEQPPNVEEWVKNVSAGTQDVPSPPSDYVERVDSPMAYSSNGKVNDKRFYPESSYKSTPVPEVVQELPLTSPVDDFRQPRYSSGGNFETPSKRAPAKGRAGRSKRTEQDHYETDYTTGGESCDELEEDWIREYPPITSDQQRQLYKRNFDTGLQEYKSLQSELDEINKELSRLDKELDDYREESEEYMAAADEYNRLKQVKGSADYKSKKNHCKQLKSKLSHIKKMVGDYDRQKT
The description is as above.

Results are given in words; binding and its absence hold for the method and conditions named. Binding seen in cells or lysates may run through a third protein. Some entries that bind do so weakly or less than the wild type. Tags and fused reporters may be left off the sequences shown.

B1: claudin-1 (residues 1–211), FLAG- or Myc-tagged, in HEK293 cells, O95832 1-211 (protein)
chain: T1 chain
As for B1, the binding result in experiment [1] and in experiment [2] was “binds” throughout.

B2: occludin (residues 1–522), FLAG- or Myc-tagged, in HEK293 cells, Q16625 1-522 (protein)
chain: T2 chain
For the molecule B2, in experiment [3], the binding entry is listed as “binds”.
